Results: article PMC13156308
No constants are given. Whether binding was seen depends on the method and setting. In cells and extracts the contact can be indirect. Here binding means that the protein was enriched with, or labelled near, the bait; the list need not be complete.

Protein sequences, listed by entry. Tags and fused reporters are not part of them.
UniProt P97310: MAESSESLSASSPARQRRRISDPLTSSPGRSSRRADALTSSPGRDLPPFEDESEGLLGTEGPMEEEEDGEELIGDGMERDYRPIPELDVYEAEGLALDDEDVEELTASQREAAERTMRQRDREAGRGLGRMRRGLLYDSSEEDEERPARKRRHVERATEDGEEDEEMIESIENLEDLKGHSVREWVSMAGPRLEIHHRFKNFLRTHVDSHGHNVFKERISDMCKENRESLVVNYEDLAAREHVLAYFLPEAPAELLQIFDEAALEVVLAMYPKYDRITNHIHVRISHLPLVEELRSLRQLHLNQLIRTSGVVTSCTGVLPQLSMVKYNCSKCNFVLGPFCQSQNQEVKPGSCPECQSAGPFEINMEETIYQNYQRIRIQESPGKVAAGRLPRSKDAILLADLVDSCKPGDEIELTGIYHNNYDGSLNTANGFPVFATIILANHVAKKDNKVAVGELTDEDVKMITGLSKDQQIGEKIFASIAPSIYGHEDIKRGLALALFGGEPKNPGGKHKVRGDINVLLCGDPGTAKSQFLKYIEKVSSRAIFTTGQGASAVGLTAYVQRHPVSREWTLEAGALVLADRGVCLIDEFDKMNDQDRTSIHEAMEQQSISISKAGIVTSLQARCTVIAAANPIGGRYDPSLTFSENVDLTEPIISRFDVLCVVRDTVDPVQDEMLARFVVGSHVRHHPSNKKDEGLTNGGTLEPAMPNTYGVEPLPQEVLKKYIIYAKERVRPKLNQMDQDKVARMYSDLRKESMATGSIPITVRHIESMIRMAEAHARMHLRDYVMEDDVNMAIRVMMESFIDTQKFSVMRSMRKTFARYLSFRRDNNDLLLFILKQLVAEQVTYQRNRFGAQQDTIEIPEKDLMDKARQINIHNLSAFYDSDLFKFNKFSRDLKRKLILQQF

T1: POLE4-TurboID (mouse) (UniProt Q9CQ36)
T1 sequence: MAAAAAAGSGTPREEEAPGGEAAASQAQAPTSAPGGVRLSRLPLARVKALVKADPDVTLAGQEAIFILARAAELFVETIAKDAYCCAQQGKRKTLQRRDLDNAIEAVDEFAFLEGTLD

T2: POLE3-TurboID (mouse) (UniProt Q9JKP7)
T2 sequence: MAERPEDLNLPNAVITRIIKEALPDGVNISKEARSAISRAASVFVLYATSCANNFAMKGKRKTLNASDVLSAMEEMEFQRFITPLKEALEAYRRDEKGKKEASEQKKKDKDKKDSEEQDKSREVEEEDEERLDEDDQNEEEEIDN

B1: helicase lymphoid-specific (HELLS) (protein, UniProt Q60848 1-821)
chain: MAEQTEPAVITPAMLEEEEQLEAAGLEKERKMLEEAQKSWDRESTEIRYRRLQHLLEKSNIYSKFLLTKMEQQQLEEQKKKEKLEKKKRSLKLTEGKSLVDGNGEKPVMKKKRGREDESYNISEVMSKEEILSVAKKHKDNEDESSSTTSLCVEDIQKNKDSNSMIKDRLSQTVRQNSKFFFDPVRKCNGQPVPFQQPKHFTGGVMRWYQVEGMEWLRMLWENGINGILADEMGLGKTVQCIATIALMIQRGVPGPFLVCGPLSTLPNWMAEFKRFTPEIPTLLYHGTREDRRKLVKNIHKRQGTLQIHPVVVTSFEIAMRDQNALQHCYWKYLIVDEGHRIKNMKCRLIRELKRFNADNKLLLTGTPLQNNLSELWSLLNFLLPDVFDDLKSFESWFDITSLSETAEDIIAKEREQNVLHMLHQILTPFLLRRLKSDVALEVPPKREVVVYAPLCNKQEIFYTAIVNRTIANMFGSCEKETVELSPTGRPKRRSRKSINYSELDQFPSELEKLISQIQPEVNRERTVVEGNIPIESEVNLKLRNIMMLLRKCCNHPYMIEYPIDPVTQEFKIDEELVTNSGKFLILDRMLPELKKRGHKVLVFSQMTSMLDILMDYCHLRNFIFSRLDGSMSYSEREKNIYSFNTDPDVFLFLVSTRAGGLGINLTAADTVIIYDSDWNPQSDLQAQDRCHRIGQTKPVVVYRLVTANTIDQKIVERAAAKRKLEKLIIHKNHFKGGQSGLSQSKNFLDAKELMELLKSRDYEREVKGSREKVISDEDLELLLDRSDLIDQMKASRPIKGKTGIFKILENSEDSSAECLF
B2: NAP1L1 (protein, UniProt P28656 1-391)
chain: MADIDNKEQSELDQDLEDVEEVEEEETGEETKIKARQLTVQMMQNPQILAALQERLDGLVDTPTGYIESLPKVVKRRVNALKNLQVKCAQIEAKFYEEVHDLERKYAVLYQPLFDKRFEIINAIYEPTEEECEWKPDEEDEVSEELKEKAKIEDEKKDEEKEDPKGIPEFWLTVFKNVDLLSDMVQEHDEPILKHLKDIKVKFSDAGQPMSFVLEFHFEPNDYFTNEVLTKTYRMRSEPDDSDPFSFDGPEIMGCTGCQIDWKKGKNVTLKTIKKKQKHKGRGTVRTVTKTVSNDSFFNFFAPPEVPENGDLDDDAEAILAADFEIGHFLRERIIPRSVLYFTGEAIEDDDDDYDEEGEEADEEGEEEGDEENDPDYDPKKDQNPAECKQQ
B3: NAP1L4 (protein, UniProt Q78ZA7 1-375)
chain: MAENSLSDGGPADSVEAAKNASNTEKLTDQVMQNPQVLAALQERLDNVSHTPSSYIETLPKAVKRRINALKQLQVRCAHIEAKFYEEVHDLERKYAALYQPLFDKRREFITGDVEPTDAESAWHSENEEEDKLAGDMKNKVVIAEKEAATVEELNPKGIPEFWFTIFRNVDMLSELVQEYDEPILKHLQDIKVKFSDPGQPMSFVLEFHFEPNDYFTNPVLTKTYKMKSEPDKADPFSFEGPEIVDCDGCTIDWKKGKNVTVKTIKKKQKHKGRGTVRTITKQVPNESFFNFFSPLKASGDGESLDEDSEFTLASDFEIGHFFRERIVPRAVLYFTGEAIEDDDNFEEGEEGEEEELEGDEEGEDEDDADVNPKV
B4: POLA1 (mouse) (protein, UniProt P33609 1-1465)
chain: MAPMHEEDCKLEASAVSDSGSFAASRARREKKSKKGRQEALERLKKAKAGEKYKYEVEDLTSVYEEVDEEQYSKLVQARQDDDWIVDDDGIGYVEDGREIFDDDLEDDALDTCGKGSDGKAHRKDRKDVKKPSVTKPNNIKAMFIASAGKKTTDKAVDLSKDDLLGDILQDLNTETAQITPPPVLIPKKKRSTGALLNPFSVHTPKAIPSGKPASPVLRNEPLLTPIPLKRAELAGELAQPECPEDEQELGVMEFEDGDFDESMDTEKVDEKPVTAKTWDQETEPVERVEHEADPERGTTSYLENFLPDVSCWDIDQDDESIPQEVQVDSSNLPLVKGADDEQVFQFYWLDAYEDPYNQPGVVFLFGKVWIESVKTHVSCCVMVKNIERTLYFLPREMKFDLNTGKETAIPVTMKDVYEEFDSKISAKYKIMKFKSKIVEKNYAFEIPDVPEKSEYLEVRYSAEVPQLPQNLKGETFSHVFGTNTSSLELFLMNRKIKGPCWLEVKNPQLLNQPISWCKFEVMALKPDLVNVIKDVSPPPLVVMSFSMKTMQNVQNHQHEIIAMAALVHHSFALDKAPPEPPFQTHFCVVSKPKDCIFPCDFKEVISKKNMKVEIAATERTLIGFFLAKVHKIDPDILVGHNICSFELEVLLQRINECKVPYWSKIGRLRRSNMPKLGSRSGFGERNATCGRMICDVEISAKELIHCKSYHLSELVQQILKTERIVIPTENIRNMYSESSYLLYLLEHIWKDARFILQIMCELNVLPLALQITNIAGNIMSRTLMGGRSERNEFLLLHAFYENNYIVPDKQIFRKPQQKLGDEDEEIDGDTNKYKKGRKKATYAGGLVLDPKVGFYDKFILLLDFNSLYPSIIQEFNICFTTVQRVTSEVQKATEDEEQEQIPELPDPNLEMGILPREIRKLVERRKQVKQLMKQQDLNPDLVLQYDIRQKALKLTANSMYGCLGFSYSRFYAKPLAALVTYKGREILMHTKDMVQKMNLEVIYGDTDSIMINTNSTNLEEVFKLGNKVKSEVNKLYKLLEIDIDAVFKSLLLLKKKKYAALVVEPTSDGNYITKQELKGLDIVRRDWCDLAKDTGNFVIGQILSDQSRDTIVENIQKRLIEIGENVLNGSVPVSQFEINKALTKDPQDYPDRKSLPHVHVALWINSQGGRKVKAGDTVSYVICQDGSNLTATQRAYAPEQLQKLDNLAIDTQYYLAQQIHPVVARICEPIDGIDAVLIALWLGLDSTQFRVHQYHKDEENDALLGGPAQLTDEEKYKDCEKFKCLCPSCGTENIYDNVFEGSGLDMEPSLYRCSNVDCKVSPLTFMVQLSNKLIMDIRRCIKKYYDGWLICEEPTCCSRLRRLPLHFSRNGPLCPVCMKAVLRPEYSDKSLYTQLCFYRYIFDADCALEKLTEHEKDKLKKQFFPLRVLQDYRKVKNIAEQFLSWSGYSEVNLSKLFANYAGKS
B5: DNA polymerase alpha accessory subunit (POLA2) (protein, UniProt P33611 1-600)
chain: MAVSTQQLAEELQIFGLDYEDSLLEKLAELCVLYRQTEDGMVSELIAFCTSAGKTCLTVDILNSFEYEVLNKKLSKAWHSASKDSGHAGTRDIVSIQELIEAEEEEETLLSSYTTPSKGPLKRVSSTPETPLTKRSVAARSPRQLLSPSSFSPSATPSQKYTSRTNRGEVVTTFGSAQGLSWSGRGGSGSVSLKVVGDPEPLTGSYKAMFQQLMGVREVLTSKIEELGSELKEHHKIEAFTPLLVPAQEPVILLGQIGCDSNGKLNSKSVILEGDQEHSYGAQIPVDLSELKEYSLFPGQVVIMEGFNTTGRRLTATKLYEGVPLPFYQPTEEEGASEQTMVVVACGPYTTSDSITYDPLLDLIAIINRDQPDVCILFGPFLDAKHEQVENCKLTSPFEDVFKQCLRTVIEGTRSSGSHLVFVPSLRDVHHEPVYPQPPFTFSELSREDKKRVQFVSEPCSLSINGVMFGLTSTDLLFHIGAEEIFSSSGTSDRFSRVLKHILTQRSYYPLYPPHEDMAIDYENFYTYAQLPVTPDVFIVPSELRYFVKDIFGCVCVNPGRLTKGQVGGTFGRLYLRRQPKAMDGGGRQGLSVAAQVVRI

biological target: T1, POLE4-TurboID (mouse); experiment: proximity labelling; bait-TurboID stably expressed in S-phase-synchronised NIH3T3 cells, 500 uM biotin 1 h, RIPA lysis, streptavidin beads, LC-MS/MS, four replicates; enriched: bait/Control >2, P <0.05

binding, binds:
B1
B2
B3

biological target: MCM2-TurboID-3xHA (mouse) (mouse) (UniProt P97310); experiment: as above

binding, binds:
B4
B1
B5

biological target: T2, POLE3-TurboID (mouse); experiment: as above

binding, binds:
B1
B2
B3
